Measured values as given in article PMC4509781.
These are yes or no findings as the source states them, for the method shown.

Amino acid sequences for entries named in this document (tags omitted). Residues count along the entry.
UniProt Q12824, residues 1-115: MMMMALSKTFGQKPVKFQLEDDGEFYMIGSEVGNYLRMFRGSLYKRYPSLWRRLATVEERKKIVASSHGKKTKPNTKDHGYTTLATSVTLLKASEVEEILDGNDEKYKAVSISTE

Target: INI1 N-terminal winged helix domain (residues 1-115 of human INI1) (human) (UniProt Q12824)
Experiment: SEC; gel filtration on a HiLoad 26/60 Superdex 75 column during purification; elution volume compared with that of a monomer; both purified

- binding: no binding
Substance: INI1 N-terminal winged helix domain (residues 1-115 of human INI1) (from UniProt Q12824 1-115) (domain or fragment)
